{
  "source": "patent US20230285556A1",
  "about": "“METHODS AND COMPOSITIONS FOR TREATING CANCER” (Omeros Corporation, priority 2021, published 2023)",
  "origin": "cited, not measured here",
  "conditions": "cited from earlier work",
  "note": "For at least one compound, name, drawing or mass did not settle the structure.",
  "data": [
    {"compound": "Nc1ncnc2c1nc(Br)n2[C@@H]1O[C@@H]2COP([O-])(=S)O[C@H]2[C@H]1O.[Na+]", "note": "(single isomer, unassigned) [Rp-8-Br-cAMPS, 8-Br-cAMPS, Rp-isomer]", "values": [
      {"measurement": "cell permeability", "value": "low cell permeability"}
    ]}
  ]
}
